# Most values lie at the floor of the assay. Slopes are relative: functional sequences can read slightly below zero.
# Test system: Saccharomyces cerevisiae PS128 hsf1 delta, HSF1(1-493) fusion
# Assay: growth estimate (transactivation domain function in HSF1 fusion, heat-shock survival) (a.u. (slope of normalised read count over time)); higher = stronger growth at 37°C, i.e. more transactivation activity
# Conditions: library: random library
# Experimental: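 Random 60-nt DNA library encoding peptides of up to 20 aa, fused to the C-terminus of yeast HSF1 residues 1-493 (C-terminal TAD deleted) and expressed from the native HSF1 promoter on a CEN plasmid in hsf1-deleted S. cerevisiae PS128. Cells were selected at 37°C on -trp 5-FOA plates for 0, 2, 4, 6 and 8 days and amplicons were sequenced. Growth estimate is the slope of a robust linear fit of total-sum-normalised read counts (normalised to the first time point) over time, using at least 2 replicates. Sequences are classed functional (TAD activity) above a threshold of -0.13, set from stop-codon control sequences.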
row,Substance,growth estimate
1,FNPRAVWGQPMLSILSLAVR,< -0.25
2,FNQADCTEL,< -0.25
3,FNRARNVIAQTGLLWVVPY,< -0.25
4,FNRVCPPLTAALVSQHNALR,< -0.25
5,FNVKLAENFRR,< -0.25
6,FPAGPWMRPIHRVSIMMPLP,< -0.25
7,FPELSSCRGPAIKRPIALCT,< -0.25
8,FPGGTVTFRQYLGDVAFDRL,< -0.25
9,FPGPLTSRGLTAAESNASDS,< -0.25
10,FPGR,< -0.25
11,FPLAPH,< -0.25
12,FPLCV,< -0.25
13,FPLIMRCVIRKFTITTTIQS,< -0.25
14,FPLPSSIP,< -0.25
15,FPLVPRCTVRAFTA,< -0.25
16,FPPGEPRPRFLRFESLHDMD,-0.246
17,FPPGLIDVHVKRLYGWVTSR,< -0.25
18,FPRIAGIPRAKPIRKNPPYI,< -0.25
19,FPRTLVFYVGRNQ,< -0.25
20,FPSEKVVRIFPCGRLARGTA,< -0.25
21,FPSLEVRLENVQLCRCASYP,< -0.25
22,FPSTVVKSHADTAVSGNLPL,< -0.25
23,FPTLRPCWWDCA,< -0.25
24,FPTSQRETRAYGSRSMATPL,< -0.25

# A portion from further up, as a working copy:
row,Substance,growth estimate
19,FPRTLVFYVGRNQ,< -0.25
20,FPSEKVVRIFPCGRLARGTA,< -0.25
21,FPSLEVRLENVQLCRCASYP,< -0.25
22,FPSTVVKSHADTAVSGNLPL,< -0.25
23,FPTLRPCWWDCA,< -0.25

# Next entries.

row,Substance,growth estimate
1,FPVTFSVDQRRKHWLTQLMQ,< -0.25
2,FQESIYV,< -0.25
3,FQHQGALDRSYQHSLTSGYA,< -0.25
4,FQLKLQLHPWGFEGLSAGIL,< -0.25
5,FQPASSAHGSILECLIVPEE,4.08
6,FQSSVKSCVPSVSPRGATVA,< -0.25
7,FQYCKFITHVLLDLHGRLLT,< -0.25
8,FRALCWTRWLRITFYQAGLS,< -0.25
9,FRANSIPGSESQAWYPYCRG,-0.227
10,FRDKFP,< -0.25
11,FREAGKGSPKSRTGTTES,< -0.25
12,FREITRPFPLSSASP,< -0.25
13,FREVRRFGVKTRAYVTHLAY,< -0.25
14,FREYPYELMVRNTGEDLEET,< -0.25
15,FRGH,< -0.25
16,FRGKRGTVWCFKQLVYRSFD,< -0.25
17,FRGRLTETTLKQAYEVGQSH,-0.208
18,FRHEQLRRREFGSRRQGRAR,< -0.25
19,FRIMWVTMGGLPVSVASSVR,< -0.25
20,FRIRAVRI,< -0.25
21,FRK,< -0.25
22,FRLYSSSAR,< -0.25
23,FRMFPAYL,< -0.25
24,FRPGSGVG,< -0.25

row,Substance,growth estimate
1,FRPSSKRLVAYPCDFEGTAG,-0.231
2,FRQRSVRPWACGLREGACQC,-0.214
3,FRR,< -0.25
4,FRRNREFKRSYD,< -0.25
5,FRRSVGGTVVE,< -0.25
6,FRRVRHQLDRYCALPHLEPL,< -0.25
7,FRSCSDEYYTTIRERVLCVN,< -0.25
8,FRSIHSKSLEAAHRSSVGWP,-0.243
9,FRSIRRGRDLTWRQAT,< -0.25
10,FRSTCSLL,< -0.25
11,FRTD,-0.23
12,FRTLG,< -0.25
13,FRVGA,< -0.25
14,FRVREVRARVVVRAIGAAQS,< -0.25
15,FRYI,< -0.25
16,FSASGSGSQHANTT,< -0.25
17,FSDGASIMRPIPHTDPSSIV,< -0.25
18,FSDTA,< -0.25
19,FSEGRVYGRGAKFSPPWNLR,< -0.25
20,FSEL,< -0.25
21,FSERRTRKTSMASCLARAIR,< -0.25
22,FSGGTDPPR,< -0.25
23,FSGTG,-0.248
24,FSGWVSRRGARTRRHWEVIH,< -0.25

row,Substance,growth estimate
1,FSIDRRMPLSEGQSNSFQST,< -0.25
2,FSIVPPFIYQVARVSGYLLV,< -0.25
3,FSLDSN,< -0.25
4,FSLMVRLWFERPIMQSVPHV,< -0.25
5,FSNPRSDVIALWLPTTWGC,< -0.25
6,FSNRPLLCVAREESHVEDWR,< -0.25
7,FSQ,-0.214
8,FSQDIVGKS,< -0.25
9,FSRMRVACIGLERGSQVGGE,< -0.25
10,FSRVR,< -0.25
11,FSSMQAARPHLGLDVC,-0.243
12,FSSPFESLTPGSIRYFFRRR,< -0.25
13,FSSVPQKICLLQHRLNSSWQ,< -0.25
14,FSVCRDESTSRSVL,< -0.25
15,FSVKNN,< -0.25
16,FTCFIESLRSTVFSESRVCR,< -0.25
17,FTGDGGRVRF,< -0.25
18,FTLVRDSPGPIQPTTSPSPI,< -0.25
19,FTLVSVTGMQRSWT,< -0.25
20,FTPL,< -0.25
21,FTRCIILVTHPNMREGGRLE,< -0.25
22,FTRS,< -0.25
23,FTSGVISVVWTAGSRRVTHR,< -0.25
